# Measurements reported in PubChem BioAssay AID540256 (National Center for Advancing Translational Sciences (NCATS), 2011).
# About 3,700 (1.2%) of roughly 300,000 compounds were called active. Inconclusive results, whose numbers are uncertain, are shown with a selection of clear calls. The call rests on the fitted dose curve; tested in HEK293 cells. Potencies beside an inconclusive call are fits to weak or partial responses and may not hold up.
# Assay: qHTS for Inhibitors of binding or entry into cells for Lassa Virus; further: nearly all actives have a fitted effect of over 50% in size
# Conditions: Lassa virus pseudotype entry inhibition, cell reporter; series mostly up to 37.9 µM
# Potency means the concentration at half of the fitted maximal effect.
row,SMILES,Potency
1,Cn1c(NC(=O)c2cccnc2)nc2ccccc21,"inconclusive: 6.31 µM [activator, single point]"
2,C=CCNC(=S)N1CCN(c2ccc([N+](=O)[O-])cc2)CC1,inactive
3,CCCOc1ccc(C(=O)Nc2ccc(-c3cc4ccccc4oc3=O)c(C)c2)cc1,"inconclusive: 15.8 µM [inhibitor, single point]"
4,CCCCSC(=O)Nc1ccccc1,inactive
5,O=c1c2ccccc2sn1-c1nccs1,"inconclusive: 35.5 µM [inhibitor, single point]"
6,O=c1cc(CSc2ccccc2)[nH]c2ccc(F)cc12,inactive
7,COc1ccc(NC(=O)CCn2c(-c3ccc(F)cc3)cc(C(C)=O)c2C)c(OC)c1,"inconclusive: 6.31 µM [inhibitor, full curve]"
8,CCc1ccc(CNC(=O)c2sc3nc[nH]c(=O)c3c2C)cc1,"inconclusive: 15.8 µM [inhibitor, partial curve, poor fit]"
9,O=C(COc1ccc(F)cc1)Nc1ccc(S(=O)(=O)N(Cc2ccccc2)c2ccccc2)cc1,"inconclusive: 35.5 µM [inhibitor, single point]"
10,Cc1cc(C)c2c(CC(=O)Nc3nccs3)coc2c1,"inconclusive: 0.447 µM [inhibitor, full curve, poor fit]"
11,Cc1cccc(-n2ncc3c(NCCCN4CCCC4=O)ncnc32)c1,inactive
12,COc1cccc(CCc2nnc(CCC(=O)N3CCN(Cc4ccccn4)CC3)o2)c1,inactive
13,NC1=NC2=C(CCCC2)C2(CCCCC2)S1,"inconclusive: 13 µM [inhibitor, partial curve, poor fit]"
14,COC(=O)c1sccc1S(=O)(=O)N(CC(=O)Nc1ccc(C)c(F)c1)c1ccc(C)c(C)c1,"inconclusive: 22.4 µM [inhibitor, single point]"
15,COc1ccc(C)c2sc(N(CCCN(C)C)C(=O)c3ccc(S(=O)(=O)N4CCc5ccccc5C4)cc3)nc12,"inconclusive: 35.5 µM [inhibitor, single point]"
16,Cc1ccc(NC(=O)Nc2cccc([N+](=O)[O-])c2)cc1F,"inconclusive: 0.316 µM [activator, partial curve, poor fit]"
17,CSCCC(NS(=O)(=O)c1ccc(Cl)cc1)C(=O)OCC(=O)c1c(C)[nH]c2ccccc12 (centres undefined),"inconclusive: 23.1 µM [inhibitor, single point]"
18,CC(=O)Nc1ccc(Nc2c(CCC(C)C)c(C)c(C#N)c3nc4ccccc4n23)cc1,"inconclusive: 7.08 µM [inhibitor, partial curve, poor fit]"
19,Cc1cccc(C)c1OCc1nnc(SCC(=O)Nc2nccs2)n1-c1ccccc1,"inconclusive: 23.1 µM [inhibitor, single point]"
20,CCCn1c(=N)n(CC(O)c2ccc(C)cc2)c2ccccc21 (centres undefined),inactive
21,Cc1ccc(CNC(=O)c2cc(S(=O)(=O)N3CCCCC3)ccc2N2CCOCC2)cc1,"inconclusive: 35.5 µM [inhibitor, partial curve, poor fit]"
22,CC[C@H](C)[C@H](NC(=O)c1ccc(Cl)cc1)C(=O)OCC(=O)c1ccc2c(c1)NC(=O)CO2,"inconclusive: 35.5 µM [inhibitor, single point]"

# Quoted at random: 2 entries already listed.
row,SMILES,Potency
8,CCc1ccc(CNC(=O)c2sc3nc[nH]c(=O)c3c2C)cc1,"inconclusive: 15.8 µM [inhibitor, partial curve, poor fit]"
21,Cc1ccc(CNC(=O)c2cc(S(=O)(=O)N3CCCCC3)ccc2N2CCOCC2)cc1,"inconclusive: 35.5 µM [inhibitor, partial curve, poor fit]"

# Remaining list, next part

row,SMILES,Potency
1,COc1ccc(/C=C2\CCCC(C(=O)C(F)(F)F)=C2O)cc1,"inconclusive: 14.1 µM [activator, partial curve, poor fit]"
2,CN(C)CCNS(=O)(=O)c1ccc(N2CCN(c3ccc(F)cc3)CC2)c([N+](=O)[O-])c1,"inconclusive: 29.1 µM [inhibitor, single point]"
3,CC(C)(C)OC(=O)N1CCC(C(=O)Nc2cccc(C(=O)N3CCOCC3)c2)CC1,"inconclusive: 0.0499 µM [activator, full curve, poor fit]"
4,CCOC(=O)c1ccc(Nc2nnc(C(C)(C)C)c(=O)[nH]2)cc1,"inconclusive: 18.3 µM [inhibitor, partial curve]"
5,COc1ccc(NS(=O)(=O)c2ccc(N3CC(O)=C(c4ccccc4)C3=N)cc2)cc1,"inconclusive: 35.5 µM [activator, single point]"
6,CCN(CC)S(=O)(=O)c1ccc(N2CCOCC2)c(NC(=O)Cc2ccccc2F)c1,"inconclusive: 16.4 µM [inhibitor, single point]"
7,COc1ccc(CN2CCCN(CC(=O)Nc3cc(C)ccc3C)S2(=O)=O)cc1,inactive
8,Cn1cccc1CNC(=O)Nc1ccccc1,"inconclusive: 29.1 µM [inhibitor, single point]"
9,CC(C)(C)c1ccc(/C=N/NC(=S)NC2CCCCC2)cc1,"inconclusive: 15.8 µM [inhibitor, single point]"
10,CC(C)c1ccc(NC(=S)N2CCN(S(=O)(=O)c3ccccc3)CC2)cc1,"inconclusive: 2.82 µM [inhibitor, partial curve, poor fit]"
11,COc1cc(C#CC#CCN2CCCCC2)ccc1O,"inconclusive: 4.11 µM [inhibitor, full curve, poor fit]"
12,COc1ccc(C(=O)NNC(=O)C23CC4CC(CC(C4)C2)C3)c(OC)c1,inactive
13,Cc1ccc(S(=O)(=O)N(CC(=O)N2CCOCC2)c2ccc(Br)cc2)cc1,"inconclusive: 12.6 µM [inhibitor, partial curve, poor fit]"
14,CCN(c1ccccc1)S(=O)(=O)c1ccc(Cl)c(NC(=O)CN(C)Cc2cccc(F)c2)c1,"inconclusive: 35.5 µM [inhibitor, single point]"
15,Cc1ccccc1OCC(=O)NN1C(=O)C2C3C=CC(O3)C2C1=O (centres undefined),inactive
16,O=C(c1scc2c1CCCC2)N1CCCCC1,inactive
17,O=C(O)c1ccc2c(c1)C(=O)N(N1C(=O)c3ccccc3C1=O)C2=O,inactive
18,O=P(O)(CCc1ccccn1)CN1CCCCC1,"inconclusive: 4.61 µM [activator, full curve, poor fit]"
19,COc1ccc(C)cc1NC(=O)c1cc(S(=O)(=O)N2CCC3(CC2)OCCO3)ccc1F,"inconclusive: 31.6 µM [inhibitor, partial curve, poor fit]"
20,COc1ccc(C2CC2/C(=N/OC(=O)c2cccs2)c2ccccc2)cc1 (centres undefined),"inconclusive: 35.5 µM [inhibitor, single point]"
21,COc1ccc(C(=O)c2cnc3cc4c(cc3c2C)OCO4)cc1,"inconclusive: 35.5 µM [inhibitor, single point]"
22,Cc1ccc(NCc2nnc(SCc3ccc(C#N)cc3)n2Cc2ccco2)c(C)c1,inactive

row,SMILES,Potency
1,CC(SCc1ccccc1)C(=O)N/N=C/c1ccc2c(c1)OCO2 (centres undefined),"inconclusive: 11.2 µM [inhibitor, partial curve]"
2,O=C(CSc1nc2ccccc2n1Cc1ccc(F)cc1)N1CCN(c2ccc(F)cc2)CC1,"inconclusive: 3.55 µM [inhibitor, partial curve, poor fit]"
3,COc1ccc(CN(C)C(=O)CCN(c2ccccc2)S(=O)(=O)c2ccc(C)cc2)c(OC)c1,"inconclusive: 7.08 µM [inhibitor, partial curve, poor fit]"
4,O=C1CCC(c2ccc(-n3ccnc3)cc2)=NN1,"inconclusive: 0.0164 µM [inhibitor, full curve]"
5,COc1ccc(-c2cc(OC(=O)c3ccccc3C)c3c(C)oc(C)c3c(=O)c2)cc1,"inconclusive: 7.94 µM [inhibitor, partial curve, poor fit]"
6,CCc1cccc(C)c1NC(=O)c1cc(S(=O)(=O)N(C)Cc2ccccc2)ccc1F,inactive
7,Cc1ccc(-n2ncc3c(N4CCCCC4)ncnc32)cc1Cl,"inconclusive: 3.16 µM [inhibitor, single point]"
8,COc1ccc(F)cc1C(=O)C1CCCN(Cc2cccn2-c2ccccn2)C1 (centres undefined),active: 10 µM
9,COc1ccc(Nc2nc(N)c(C(=O)c3ccc(OC)cc3)s2)cc1,"inconclusive: 1 µM [inhibitor, full curve, poor fit]"
10,Cc1ccc2cccc(OCC(=O)NCc3ccco3)c2n1,"inconclusive: 0.092 µM [inhibitor, full curve, poor fit]"
11,COc1cc2cc(C(c3nnnn3C3CCCCC3)N(C)C3CCCCC3)c(=O)[nH]c2cc1OC (centres undefined),"inconclusive: 29.1 µM [inhibitor, single point]"
12,CCOC(=O)c1c(NC(=O)COC(=O)CNC(=O)c2ccc(Cl)cc2Cl)sc(C(=O)N(C)C)c1C,"inconclusive: 35.5 µM [inhibitor, single point]"
13,CC(=O)N1CCCc2cc(S(=O)(=O)N(CCN(C)C)Cc3ccccc3)ccc21,inactive
14,CCc1nnc(NC(=O)CSc2ccc(-c3nc4ccc(C)cc4[nH]3)cn2)s1,"inconclusive: 14.1 µM [inhibitor, single point]"
15,CCc1ccc2oc(C(=O)NCC(c3ccc(Cl)cc3)N3CCOCC3)c(C)c2c1 (centres undefined),inactive
16,NC(=O)CCN1CCN(Cc2cn[nH]c2-c2cccc3ccccc23)CC1,"inconclusive: 3.16 µM [activator, partial curve, poor fit]"
17,Cc1onc(-c2ccccc2)c1C(=O)NC(=S)NNC(=O)c1ccc(O)cc1,"inconclusive: 35.5 µM [inhibitor, partial curve, poor fit]"
18,CCOC(=O)c1c(C)oc2nc(C)nc(Nc3cc(C)cc(C)c3)c12,"inconclusive: 11.2 µM [activator, partial curve, poor fit]"
19,C=CCn1c(SCC(=O)N2CCc3ccccc3C2)nc2sc(C)cc2c1=O,"inconclusive: 20 µM [inhibitor, partial curve, poor fit]"
20,CCCc1ccc(S(=O)(=O)N2CCN(C(C)C(=O)NC3CCCC3)CC2)cc1 (centres undefined),"inconclusive: 15.8 µM [inhibitor, single point]"
